This is an account of results in PubChem BioAssay AID1347423 (Functional Genomics Laboratory (NCATS/FGL), 2020).

Out of some 52,000 sequences screened, about 210 (0.4%) were called active.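 How the source made its calls: active means gene whose silencing raises cell survival under the drug, median off-target-corrected z-score across its silencing RNAs 2 or more; inactive means the rest.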 This is one part of the list.

This experiment in a line: Resistance to Poly (ADP-Ribose) Polymerase inhibitor: Gene Identification via Genome-wide siRNA Screen. The following applies: mouse BRCA2 R2336H ES cells, olaparib, CellTiter-Glo viability; stronger effect = higher value. In a few lines:
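Genome-wide siRNA screen (3 siRNAs/gene, 20 nM) in mouse ES cells carrying hypomorphic BRCA2 R2336H; olaparib 500 nM added 48 h post-transfection, CellTiter-Glo viability 72 h later. Normalized to plate-median negative control; MAD z-scores, gene median, seed-adjusted.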
(In general: Cellular ATP, detected with luciferase, serves as a proxy for viable cell number.)
“CCAGGCCAAAUCUCACAAUTT against A730008H23”: the z-score is inactive: 0.0605.

As for GGAUCUCUACUUCUAUAAGTT against Kif27, the z-score was inactive: -0.277.

As to “CGACCCUGACAGAAUACUCTT against 1810045K07Rik”, the z-score is inactive: -0.438.

Turning to CCUUGCUCAAUGUUUUGGATT against Obscn, the z-score is inactive: -0.721.

Turning to GCCUACUCCCAAGAGGAAATT against Rai3, the z-score is inactive: -0.191.

With “GGGAAAAUACACUAUUUGATT against D530031C13Rik”, the z-score is inactive: 1.23.

GCCUUUCAAGAUUUGUGGGTT against Wdt2: the z-score is inactive: -0.571.

Turning to GCUAUAAGCUCAGGUUUGUTT against Osbpl10, the z-score is inactive: -0.293.

For the sequence GCACCCUCUUUCAAGAAACTT against Olfr331, the z-score is inactive: 1.56.

GCCUCUUCAGAUGGACCUATT against Phemx: the z-score was inactive: 0.0947.

Take GGGUGAUCCCUGAAUAUUGTT against Arcn1: the z-score is inactive: -1.79.

As for CGAGAUUUUUCAUGAUGUGTT against Slc4a8, the z-score is inactive: 0.333.

Consider CCAAACUAGGAGACAUAAUTT against Dhx38, for which the z-score was inactive: 0.431.

On to GGAUCUAUGGGUAUCCUGCTT against Adam1a, for which the z-score was inactive: 0.143.

In the case of CGUAUUUGUGGCAUAUUAGTT against Olfr1183, the z-score was inactive: 0.353.

As for GGAUAUCCUUCUGUCCAGUTT against Tyr, the z-score is inactive: -0.0111.

“GCUCUCAAAAGUCCUUAGCTT against 2210018M11Rik”: the z-score is inactive: -0.309.

For the sequence “GGACCUCAGCUUACCUAGCTT against 1300002K09Rik”, the z-score was inactive: 0.32.

Turning to GGAAAUUGCUCAAAAAAGGTT against Asb3, the z-score is inactive: 0.325.

On to GGACAAGGCAAAGGCCUAUTT against Phka1, for which the z-score is inactive: 1.78.

Turning to UCACUGUACCAUUCAUAUGTT against Olfr50, the z-score is inactive: 0.0614.

Regarding AUGAUUCCCUACCAGAUCGTT against Pfdn4, the z-score is inactive: -0.598.

In the case of GGUCAUCUUCCGAUACUGUTT against Pspn, the z-score is inactive: 0.712.

As for “GGCUAUAACCAGCCUCAUGTT against A730055C05Rik”, the z-score was inactive: -0.887.

In the case of “CCAGAUGCUAAAUCACUACTT against 1700019P01Rik”, the z-score is inactive: 1.43.

For the sequence “GCACUUACUCCUUAACUCUTT against D19Ertd144e”, the z-score was inactive: -0.415.

GGUCAUGAAAAAGCUAACCTT against Dppa3: the z-score was inactive: -0.645.

For GGCCUACGAGAGGCAAAAATT against Tcf1, the z-score was inactive: -0.541.

As for CGAGGUCUCAAUUACAUUATT against Pcolce2, the z-score is inactive: 1.39.

Regarding UAUCCACAGUAUGGUGGCUTT against Tas2r137, the z-score is inactive: 0.767.

In the case of GGAAUUCAUACCCUUGUUGTT against B3gnt5, the z-score was inactive: -0.731.

“GCACCUUAAAAAUGAAGAUTT against D12Ertd551e”: the z-score was inactive: -0.616.

GGGAGAAGAUGUCAACCGGTT against Mtpn: the z-score was inactive: 0.444.

Regarding CGAAGCAUUAGAUUUUGACTT against BC062185, the z-score was inactive: 0.863.

Turning to GCGAUCACUUUUCAAGUUUTT against Rnf139, the z-score was inactive: -0.00625.

On to “GGUCAUGUUUCUCUCCCAATT against 2810471M23Rik”, for which the z-score was inactive: -1.43.

Regarding GGUCAGAUUAACAAAUUCGTT against Proz, the z-score is inactive: 0.453.

Take GGUGACUAACGAGAUCAUUTT against Slc19a1: the z-score is inactive: -2.21.

“GCUCCUCGGUCUUUCAUGUTT against 5330401P04Rik”: the z-score was inactive: -2.47.

For the sequence GGACGAAGGUUUCUUUGAGTT against Samd8, the z-score is inactive: 0.578.

As to GGUGCUCAACAAGUGGACUTT against Htr1a, the z-score was inactive: -0.928.

For the sequence GGCACAUUAGUAGAACACATT against Sorcs2, the z-score was inactive: -0.299.

For the sequence GGCAAAAUGACACGGACACTT against Gm253, the z-score was inactive: -1.52.

For the sequence CCUUUUUGAUCGUUAUGAUTT against Dnajc11, the z-score was inactive: 1.43.

On to GGAUUGAGUCCUAUGAAGGTT against Stard3nl, for which the z-score is inactive: 0.128.

As to GCUGCCUACCUGUGAAAGUTT against Pgam2, the z-score is inactive: -0.179.

Turning to GGUCUCACAGCAGUACUCATT against Clk4, the z-score was inactive: 0.89.

In the case of CCAUCACCAGUCGAGAUGCTT against H13, the z-score is inactive: 0.487.

With “GCCGUACCAUGUAAUGCCATT against 1200013P24Rik”, the z-score was inactive: 0.73.

Turning to GGUGUCUGAGUAAUUCUGGTT against Zfp371, the z-score was inactive: 0.498.

Take GGUAACAGUUCAACAGUAUTT against Olfr1039: the z-score is inactive: -1.26.

As for GGAGUACAGUGUGAGCAGATT against Dok4, the z-score was inactive: -1.13.

With “CGCGUAUCUGACCAGGUCATT against 2410011O22Rik”, the z-score was inactive: 0.00225.

For the sequence GGCUCUGUAGCUAGCAAUATT against C77080, the z-score is inactive: 1.59.

Consider “UCGAAGAUUGGUCUAAAUUTT against 1700055M20Rik”, for which the z-score was inactive: 0.556.

GCAGCUUAAGUUGCCCAAGTT against Aatk: the z-score is inactive: -2.24.

Regarding GGCUGAGGAUAUGAUGUUATT against Zic3, the z-score was inactive: -1.44.

UGGCUGAUAUGAAGGUCUGTT against LOC432602: the z-score was inactive: 0.158.

Regarding “GGCUGAAAGCCCAGAUCUUTT against 4930565A21Rik”, the z-score is inactive: -2.19.

In the case of “CCUUAUAGUCCAGUAUUUUTT against 6030443O07Rik”, the z-score is inactive: 0.625.

Take GGAAAGUCAGGAUGAAUAUTT against Cst9: the z-score is inactive: -1.89.

With GGCUUCAAGCAAGUAAAGGTT against Cars, the z-score was inactive: -0.872.

In the case of GGGCUAGAGGAAAACGAAATT against Crot, the z-score is inactive: -0.453.

On to AUGAUUCACAGUGCAGUGATT against Imap38, for which the z-score is inactive: -0.34.

For GACCCAGGCUCUGCUCUUUTT against Olfr1413, the z-score is inactive: 1.28.

For GGAAAAAUGGCAACUUCAATT against Dock3, the z-score is inactive: 0.215.

Regarding GGGAUUGGGACUGUUUUUGTT against Atp5g2, the z-score is inactive: -0.641.

As for GGUGGACAAGACUAAAACATT against Podxl, the z-score was inactive: 0.378.

In the case of GCCAAUAAGAACAACGAUGTT against Des, the z-score is inactive: -0.111.

With GGUGUCCAGAUUUACCUGUTT against Olfr429, the z-score is inactive: 0.127.

CAAUAAUGAAUCCACGGUATT against Olfr728: the z-score was inactive: -0.876.

For GCUGAAAUCUCCAAAUACCTT against Arl8, the z-score is inactive: -0.727.

Turning to GGCUGUUUAGAUGUAAUGUTT against Nek1, the z-score is inactive: -0.348.

Consider GCACAUCUCAGCCUGAAUCTT against Cln6, for which the z-score is inactive: -0.164.

GGACCAUGGAUAUUUAAAGTT against Mafk: the z-score is inactive: 0.606.

On to CCGAAGUUCACCCUAAAGGTT against Lmna, for which the z-score was inactive: 0.053.

With CCUGAAAGAUCCAGAAGUATT against Dppa5, the z-score was inactive: 0.602.

For the sequence GGUCCAGCUAUAAAGACAATT against Gm405, the z-score was inactive: -0.321.

For “GCCUUGUAGACCAGUUCUATT against 9530085L02Rik”, the z-score is inactive: -1.46.

Turning to “GGAUAACAGAUGGUUAAUATT against D5Ertd577e”, the z-score is inactive: 0.00935.

As to GGCUGCCAAGAAAAUCUAUTT against Rab14, the z-score is inactive: 0.0881.

On to “GCCUUACAACAAGCAACACTT against 2210008M09Rik”, for which the z-score is inactive: 0.683.

For the sequence GGUGUGUGAUAAAUCUUUUTT against Zfp53, the z-score is inactive: 0.686.

Regarding GGCCCUGCCAGGUUUUUAGTT against Rpel1, the z-score was inactive: 0.301.

AGAGUGGUAAAACUGAUUATT against Tas2r129: the z-score is inactive: -0.146.

On to GGUGAACAUUAACAACAGUTT against Ngfb, for which the z-score was inactive: 0.53.

Regarding GGGCAAUGAUAUUGUUGUGTT against Ilk, the z-score is inactive: -1.71.

In the case of GGAGCCUGACAUCAUUAUCTT against Mmp25, the z-score is inactive: -0.573.

As to GGAUCUAGAGAUUGAAAAUTT against Uaca, the z-score was inactive: -0.993.

GGGCUGUGAUAUGCAACUCTT against AJ554213: the z-score is inactive: -1.15.

Consider “GGGUUGUUUGCUGGUUUGUTT against 0610007H07Rik”, for which the z-score was inactive: -1.99.

With GGACCUGAAACACGCCAAUTT against Pctk3, the z-score is inactive: -0.013.

Regarding GGCCUUUUGGCUUUGAUCUTT against Hoxb1, the z-score is inactive: 0.514.

Turning to GGAUGUACUUUGUUAAGGCTT against Tert, the z-score is inactive: 0.341.

For “GCCUUUAUCUACCGCCCAGTT against 4932442K08Rik”, the z-score is inactive: 0.56.

GCUAAACGAGUUAUUGGUGTT against AI314180: the z-score is inactive: -1.

“GGACCCAUUGGUCAUCAUATT against 4732473B16Rik”: the z-score is inactive: -0.785.

As for CCGUAGUCCUGAAGAUUCCTT against Olfr427, the z-score was inactive: 1.73.

For GACCAUCCUACUACUUAUGTT against V1rc8, the z-score was inactive: 0.509.

As for GGGCAUAUGGAGAACACAUTT against Dmrt1, the z-score is inactive: 0.262.

For GGUGUACCAAGUGUUGAAGTT against Pold4, the z-score was inactive: 0.761.

CCUAGGGCUUUAGCUCUGATT against Msc: the z-score is inactive: -1.29.

For “CCUUGGUGGCCCAUUUAGCTT against 9830107B12”, the z-score was inactive: 0.43.

“CCAAUUAUCCCGGGACCUATT against 1700030B21Rik”: the z-score is inactive: -2.04.
